# About 2,100 (0.66%) of roughly 320,000 compounds were called active. The inconclusive results got no clear call from the source; some entries with a clear call stand among them for comparison. Calls come from the whole dose curve; as a rule, active = well fitted inhibition curve with a large enough effect in the signal ratio, with a control signal flat (not every such curve was filed as active); inconclusive = small, poorly fitted or top-dose-only effect, or effect the other way, or a change in a side signal; inactive = flat fitted curve, though single readings scatter; the % refers to the signal ratio. Where the call is inconclusive, the potency comes from a doubtful curve fit.
# Assay: qHTS Assay for Lipid Storage Modulators in Drosophila S3 Cells
# Details: BODIPY lipid droplet fluorescence, 18-24 h, cells fed with added oleic acid; lipid storage change, negative = inhibition: at 46.1 µM (top of the series) unless noted
# Summary of the method: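 Laser-scanning cytometry quantifies lipid droplet accumulation (500–530 nm total intensity; droplet/cell object ratio) in oleic acid-fed (400 uM added) Drosophila S3 cells treated with a concentration series. 20 uM Triacsin C defined 100% inhibition.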
# % is set by controls: 0 for no effect and ±100 for the full control effect; potency is the fitted concentration of half-maximal effect.
Structure (SMILES),Potency,"lipid storage change, negative = inhibition"
COC(=O)c1ccc(/C=C/C(=O)c2ccc(OC)c(OC)c2)cc1,"inconclusive: 29.1 µM [falling, single point]",–
O=C(NCC1CCCO1)C1CCCN(S(=O)(=O)c2cccc(C(F)(F)F)c2)C1 (stereo not given),"inconclusive: 20.6 µM [activator, single point]",–
O=C(CNC(=O)c1ccccc1F)c1ccccc1,–,inconclusive: 128%
O=C(Nc1ncccn1)c1ccc([N+](=O)[O-])o1,–,inactive
CCOc1cc(N2CCOCC2)c(OCC)cc1NC(=O)COC(=O)c1cc(C)cc(C)c1,–,inconclusive: 4.16%
Cc1ccc(S(=O)(=O)N2CCCCC2)cc1,–,inconclusive: -14.8%
O=C(CCCN1C(=O)/C(=C\c2cccs2)SC1=S)Nc1cc([N+](=O)[O-])ccc1O,–,inactive
Cc1cc(C)n(-c2nc3ccccc3nc2N2CCN(C(=O)c3ccc(Cl)cc3)CC2)n1,"inconclusive: 11.6 µM [activator, single point]",–
CNc1ccc(Oc2c(F)c(F)nc(F)c2F)cc1,–,inactive
Cc1c(F)cccc1NC(=O)c1ccc2c(c1)CCN2S(C)(=O)=O,"inconclusive: 29.1 µM [falling, single point]",–
O=C(Nc1cccc2cccnc12)c1cccc(Cl)c1,–,inconclusive: 33.6%
CCCCc1ccc(NC(=S)NCc2cccc(OC)c2)cc1,"inconclusive: 25.9 µM [falling, single point]",–
O=C(CSc1n[nH]c(-c2cc(Cl)ccc2Cl)n1)NCCN1C(=O)CSC1=O,active: 18.4 µM,–
CC(NCC(=O)Nc1ccccc1C(=O)NC1CC1)c1cccc(Cl)c1 (stereo not given),–,inconclusive: -46.5%
Cc1cc(C)c(S(=O)(=O)N2CCCC2=O)c(C)c1N(C)S(C)(=O)=O,"inconclusive: 0.82 µM [falling, full curve, poor fit]",–
COc1ccccc1C(=O)Nc1nnc(S(=O)(=O)N2CCC(C)CC2)s1,"inconclusive: 6.51 µM [falling, partial curve]",–
Cc1ccc2c(Cl)cc(Cl)c(OCC(=O)Nc3cccc(S(=O)(=O)N(C)C)c3)c2n1,"inconclusive: 6.51 µM [activator, partial curve]",–
Cc1ccc(-c2csc(NC(=O)c3ccco3)n2)cc1C,–,inconclusive: -33.5%
CCOc1ccccc1C(=O)Nc1cccc2ccccc12,–,inconclusive: 51.4%
CC(C)C(=O)N=c1sc2cc(F)cc(F)c2n1C,–,inconclusive: -62.5%
CC(C)(C)N(Cc1ccccc1)C(=O)c1ccc(Cl)cc1[N+](=O)[O-],–,inconclusive: 40.8%
CCCCn1c(N2CCCC2)nc2c1c(=O)[nH]c(=O)n2C,–,inconclusive: 347%
Cc1ccccc1C(=O)Nc1cccc(NC(=O)c2cccnc2)c1,"inconclusive: 9.2 µM [activator, partial curve]",–
Cc1ccccc1-n1ccnc1SCC(=O)O,"inconclusive: 0.731 µM [falling, full curve, poor fit]",–
Cc1ccc2c(c1)c1ncnc(N3CCC4(CC3)OCCO4)c1n2C,"inconclusive: 2.91 µM [activator, partial curve]",–

Structure (SMILES),Potency,"lipid storage change, negative = inhibition"
Brc1ccc(OCc2ccccc2)c(CNCC2CCCO2)c1 (stereo not given),–,inconclusive: 19%
CC(NC(=O)c1ccco1)c1nc(-c2ccc(Cl)cc2)no1 (stereo not given),–,inactive
COc1ccc(C(=O)NCCc2cc3c(OC)ccc(OC)c3[nH]c2=O)cc1OC,–,inconclusive: -10.3%
COc1ccc(N2CC(C(=O)Nc3nc4ccccc4s3)CC2=O)cc1 (stereo not given),–,inconclusive: 17%
Nn1c(SCc2ccccc2F)nnc1-c1cccnc1,–,inconclusive: 15.1%
CN(C(=O)c1cnc(N2CCN(c3ncccn3)CC2)c2ccccc12)c1ccc(Cl)cc1,–,inconclusive: -2.32%
O=C(COC(=O)c1ccccc1C(=O)c1ccc(Cl)cc1)NCCc1ccccc1,"inconclusive: 18.4 µM [falling, single point]",–
Cc1cccc(C)c1-n1c(C)nn(CC2CC2)c1=O,–,inconclusive: 4.81%
CC(=O)Oc1cccc(C2C3=C(CC(C)(C)CC3=O)Nc3ccccc3N2C(C)=O)c1 (stereo not given),–,inconclusive: 122%
O=C(C1CCCN(C2CC(=O)N(c3ccc(Cl)cc3)C2=O)C1)N1CCCC1 (stereo not given),–,inconclusive: -3.73%
Nc1cc(=O)[nH]c(SCC(=O)N2CCCCC2)n1,"inconclusive: 29.1 µM [activator, single point]",–
CCOc1ccc(CN(C)C(=O)c2ccc3c(c2)NC(=O)C(C)S3)cc1OC (stereo not given),–,inconclusive: -25.8%
COC(=O)c1sccc1NC(=O)Nc1ccc(F)cc1F,–,inconclusive: -12.2%
COc1ccccc1CNC(=O)c1sccc1C,–,inconclusive: -103%
COc1ccccc1NC(=O)NC1(C(=O)NCC2CCCO2)CCCCC1 (stereo not given),–,inconclusive: 8.73%
CCCn1c(SCC(=O)Nc2nc(-c3ccc(OC)cc3)cs2)nc2c1c(=O)n(C)c(=O)n2C,–,inconclusive: 11.7%
O=C(COC(=O)C1(c2ccc(F)cc2)CCCC1)Nc1ncc(C(F)(F)F)cc1Cl,–,inconclusive: -28.3%
COc1ccc(Nc2nc(N)nc(CSc3nnc(N)s3)n2)cc1,–,inconclusive: -11.2%
CCC(=O)c1ccc(OC(=O)Cc2ccc(OC)cc2)cc1,–,inconclusive: 23.3%
Cc1oc2cc3oc(=O)c(CCC(=O)NC4CC4)c(C)c3cc2c1C,–,inconclusive: 35.4%
COc1ccc(OC)c(NC2c3ncccc3C(=O)N2Cc2ccco2)c1 (stereo not given),–,inactive
COCCNC(=O)c1ccc(N2CC3CC(C2)c2cccc(=O)n2C3)c(NC(=O)c2ccc(Br)o2)c1 (stereo not given),"inconclusive: 3.66 µM [falling, full curve, poor fit]",–
O=C(c1ccc(N2CCN(C(=O)c3cccc(F)c3)CC2)cc1)c1cccc(F)c1,"inconclusive: 1.64 µM [activator, partial curve]",–
CCc1ccc(NC(=O)CCc2c(C)nn(-c3ccc(N4CCOCC4)nn3)c2C)cc1,"inconclusive: 20.6 µM [falling, single point]",–
CCCCn1c(N)c(N(C)C(=O)c2ccccc2Oc2ccccc2)c(=O)[nH]c1=O,–,inconclusive: 151%

# A different layout for part of the listing above.
Structure (SMILES) | Potency | lipid storage change, negative = inhibition
Brc1ccc(OCc2ccccc2)c(CNCC2CCCO2)c1 (stereo not given) | – | inconclusive: 19%
O=C(COC(=O)c1ccccc1C(=O)c1ccc(Cl)cc1)NCCc1ccccc1 | inconclusive: 18.4 µM [falling, single point] | –
CCOc1ccc(CN(C)C(=O)c2ccc3c(c2)NC(=O)C(C)S3)cc1OC (stereo not given) | – | inconclusive: -25.8%
CCCn1c(SCC(=O)Nc2nc(-c3ccc(OC)cc3)cs2)nc2c1c(=O)n(C)c(=O)n2C | – | inconclusive: 11.7%
